# According to PubChem BioAssay AID504648 (National Center for Advancing Translational Sciences (NCATS), 2011):
# Out of some 390,000 compounds screened, about 610 (0.16%) were called active. The inconclusive results got no clear call from the source; some entries with a clear call stand among them for comparison. Calls follow the shape of the dose curve; as a rule, active = well fitted inhibition curve with a large enough effect; inconclusive = small, poorly fitted or top-dose-only effect, or effect the other way, or another doubt; inactive = no such curve, though single readings can be large or run the other way. A potency beside an inconclusive call is a rough fit, not a confirmed value.
# Test: Nrf2 qHTS screen for inhibitors: counterscreen for cytotoxicity
# Details: A549 ARE-Fluc cells, CellTiter-Fluor viability, 18-24 h; activity change, negative = cytotoxicity: at 46 µM (top of the series)
# In short: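 Cytotoxicity counterscreen: CellTiter-Fluor fluorescence was measured in A549 ARE_Fluc cells after 18-24 h of compound exposure in a concentration series. The subsequent BugLite luminescent read reports ARE-luciferase activity.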
# % is scaled to controls: 0 for no effect and ±100 for the full control effect; potency is read from the fitted curve at half-maximal effect.
Structure (SMILES),"activity change, negative = cytotoxicity",Potency
CC(C)CC(=O)Nc1ccc(S(=O)(=O)Nc2cc3c(cc2N2CCOCC2)n(C)c(=O)c(=O)n3C)cc1,inactive: -11.6%,
CC(C)c1ccc(NC(=O)c2ccc3c(c2)CCCN3S(C)(=O)=O)cc1,,"inconclusive: 18.4 µM [falling, single point]"
COc1ccc(CCN(C)Cc2ccc(C(=O)Nc3ccccc3)cc2)cc1OC,inactive: -10.3%,
S=c1[nH]nc(COc2ccc(Cl)cc2)n1C1CCCCC1,,"inconclusive: 29.1 µM [falling, single point]"
Cc1ccccc1OCCCn1c(-c2ccc(Cl)cc2)nc2ccccc2c1=O,inactive: 2.05%,
COc1ccc(Nc2nc3cc(Cl)c(Cl)cc3n3cnnc23)cc1Cl,inactive: 1.38%,
Cc1[nH]n(-c2ccccc2)c(=O)c1N=Nc1nccs1,,"inconclusive: 29.1 µM [falling, single point]"
CCC(C)n1c(SCc2c(F)cccc2Cl)nc2ccsc2c1=O (stereo not given),,"inconclusive: 23.1 µM [falling, single point]"
COc1cc(NC(=O)Cn2ncc(Cl)c(Cl)c2=O)c(C)cc1[N+](=O)[O-],,"inconclusive: 23.1 µM [falling, single point]"
CCN(CC)c1ccc(C=C2SC(=S)NC2=O)cc1,,"inconclusive: 13 µM [falling, partial curve, poor fit]"
CCN1CCN(CCCNC(=O)c2ccc3c(c2)NC(=O)/C(=C\c2cccc(C)c2)S3)CC1,inactive: 10.4%,
CCOC(=O)c1c(C)[nH]c(O)c1C=Nc1ccc(Cl)cc1,,"inconclusive: 23.1 µM [falling, single point]"
CCN(CC)CCCC1(CN)OCCc2ccccc21 (stereo not given),,"inconclusive: 29.1 µM [falling, single point]"
CCC(=O)c1ccc(N2CCN(C(=O)c3cc([N+](=O)[O-])ccc3N3CCN(C)CC3)CC2)c(F)c1,,"inconclusive: 2.91 µM [falling, partial curve, poor fit]"
CCOC(=O)c1[nH]c(C)c(CCC(=O)Nc2cc(Cl)c(OC)cc2OC)c1C,inactive: 14.4%,
Cc1nc(-c2ccc(C(=O)Nc3cccc(Br)c3)cc2)cs1,,"inconclusive: 32.6 µM [falling, partial curve, poor fit]"
CCCCCCc1cc2cc(S(=O)(=O)c3ccc(F)cc3)c(=O)oc2cc1O,inactive: -7.58%,
CN(CCOc1ccc(Cl)cc1)C(=O)c1cccc(S(=O)(=O)N2CCN(c3ccccc3)CC2)c1,,"inconclusive: 5.8 µM [falling, partial curve, poor fit]"
Cc1ccc2c(c1)c(C)c(C)n2CC(O)Cn1nnc2ccccc21 (stereo not given),,"inconclusive: 29.1 µM [falling, single point]"
O=C(NC1CCCCCC1)c1ccc(CS(=O)c2cccc(Cl)c2)o1 (stereo not given),inactive: 9.46%,
Cc1ccc(S(=O)(=O)c2c(N)n(Cc3ccco3)c3nc4ccccc4nc23)cc1C,,"inconclusive: 25.9 µM [falling, single point]"
COc1ccc(C2C=C3CNS(=O)(=O)C3CC2OC(=O)c2ccc(C(F)(F)F)cc2)cc1 (stereo not given),,"inconclusive: 29.1 µM [falling, single point]"
COc1cccc(C(=O)N(Cc2ccccc2)Cc2cc3cc4c(cc3[nH]c2=O)OCCO4)c1,inactive: -18%,
COC(=O)c1scc(C#N)c1N/N=C(\C#N)S(=O)(=O)c1ccc(Cl)cc1,,"inconclusive: 29.1 µM [falling, single point]"

Structure (SMILES),"activity change, negative = cytotoxicity",Potency
C/C(N)=C(/C#N)C(=O)CSc1n[nH]c(-c2ccccc2Br)n1,,"inconclusive: 20.6 µM [falling, partial curve, poor fit]"
CCc1cccc(CC)c1NC(=O)COn1nnc2ccc(C(F)(F)F)cc21,,"inconclusive: 23.1 µM [activator, partial curve, poor fit]"
Cc1snnc1C(=O)NC(=S)Nc1ccccc1,inactive: 3.67%,
CCN(C(=O)c1ccco1)c1nnc(-c2ccc(OC)cc2)s1,inactive: -1.93%,
O=S(=O)(c1ccc2nc(Nc3ccc(F)cc3)ccc2c1)N1CCCC1,inactive: 3.86%,
Cn1cccc1C(=O)NC(=O)COC(=O)c1ccc(S(C)(=O)=O)c([N+](=O)[O-])c1,,"inconclusive: 18.4 µM [falling, single point]"
Cc1ccc(-c2c(C#N)c(N)nc3c2CCCCCC3)o1,,"inconclusive: 20.6 µM [activator, single point]"
Cc1ccc(-n2cnc3c(sc4nc(N5CCOCC5)c5c(c43)CCCC5)c2=O)cc1,inactive: -0.63%,
COc1ccc2nc(SCCOC(=O)Nc3ccc(Cl)cc3)nc(C)c2c1,,"inconclusive: 32.6 µM [falling, partial curve, poor fit]"
Cc1nc(NC(=S)NC(=O)COc2ccccc2Cl)ccc1Br,inactive: -0.177%,
CCCc1cc(C(=O)NCC(C)C)no1,,"inconclusive: 29.1 µM [activator, partial curve, poor fit]"
c1cncc(-c2nc(N3CCCCCC3)c3ccccc3n2)c1,,"inconclusive: 23.1 µM [falling, partial curve, poor fit]"
O=S(=O)(c1cccs1)N1CCN(CC(O)COc2cccc(Br)c2)CC1 (stereo not given),inactive: 14.1%,
CC(C)N1C(=O)/C(=C/c2nc3ccccc3c(=O)n2-c2ccccc2)c2ccccc21,,"inconclusive: 20.6 µM [falling, single point]"
Cc1ccc(S(=O)(=O)N2CCOCC2)cc1NC(=O)CNCC1CCCCC1,inactive: 0.982%,
CCC(=O)c1ccc(OCC(O)CN2CCN(C(c3ccccc3)c3ccccc3)CC2)cc1 (stereo not given),,"inconclusive: 29.1 µM [falling, single point]"
O=c1c2ccccc2[nH]c2ccccc12,,"inconclusive: 16.4 µM [activator, partial curve, poor fit]"
CCc1nc(Nc2ccc(OC)c(OC)c2)c2nnn(Cc3ccccc3Cl)c2n1,,"inconclusive: 32.6 µM [falling, single point]"
N#CN=c1snc(-c2ccccc2)n1-c1ccc(Cl)cc1,inactive: 0.391%,
COc1cc(SC)ccc1C(=O)OCc1nc2ccsc2c(=O)[nH]1,inactive: -0.466%,
COc1ccc(N/N=C(/Oc2ccc([N+](=O)[O-])cc2)C(C)=O)cc1,,"inconclusive: 29.1 µM [falling, single point]"
CCN(CC)c1ccc2c(Nc3ccccc3)c(C=O)c(=O)oc2c1,,"inconclusive: 14.6 µM [falling, partial curve, poor fit]"
Cc1nn(-c2ccc(N3CCCCC3)nn2)c(C)c1CCC(=O)Nc1ccc(F)c(F)c1,,"inconclusive: 23.1 µM [falling, partial curve, poor fit]"
CCOc1ccccc1NC(=O)Cn1nc(N2CCN(c3ccccc3)CC2)ccc1=O,inactive: 5.15%,

Structure (SMILES),"activity change, negative = cytotoxicity",Potency
CCOC(=O)c1ccc(NC(=S)N2CCSC2c2ccc(Cl)cc2)cc1 (stereo not given),,"inconclusive: 29.1 µM [falling, single point]"
Cc1ccc(C(=O)Nc2oc(-c3ccccc3)cc2C#N)cc1,,"inconclusive: 4.11 µM [falling, single point]"
CC(C)N1CCN(S(=O)(=O)c2ccc3ccccc3c2)CC1,inactive: 2.1%,
O=C(Cn1c(=O)n(-c2ccccc2Cl)c(=O)c2sc3ccccc3c21)NC1CCCC1,,"inconclusive: 9.2 µM [falling, partial curve, poor fit]"
O=C(NC1CCN(C(=S)Nc2ccccc2)CC1)C1CCCCC1,inactive: 0.791%,
O=[N+]([O-])c1cccc(NN=Nc2ccccc2)c1,,"inconclusive: 29.1 µM [falling, partial curve, poor fit]"
Cc1nnsc1C(=O)NC1CCCc2c1cnn2-c1ccc(C(C)(C)C)cc1 (stereo not given),,"inconclusive: 8.2 µM [falling, partial curve, poor fit]"
COc1cccc(CNC(=O)c2ccc3c(c2)nc2n3CCC(C)C2)c1 (stereo not given),inactive: 16.6%,
CCCCNCCOCCOc1ccccc1-c1ccccc1,,"inconclusive: 29.1 µM [falling, single point]"
O=C(NNC(=O)C12CC3CC(CC(C3)C1)C2)c1ccccn1,,"inconclusive: 20.6 µM [falling, single point]"
CCOC(=O)C1CCN(Cc2cc(=O)n3c(-c4ccccc4)csc3n2)CC1,,"inconclusive: 29.1 µM [activator, partial curve, poor fit]"
O=c1cc(-c2ccccc2)oc2ccc(Cl)cc12,inactive: -1.38%,
Cc1ccc(NC(=S)NCc2cccn2C)cc1,,"inconclusive: 29.1 µM [falling, partial curve, poor fit]"
COc1ccc(-c2ccc(N(C)C)cc2)cc1[C@H]1[C@@H]2C=CCC[C@@]2(C)C(=O)N1Cc1ccccc1,inactive: -0.0791%,
O=C(CSc1nc2ccccc2c(=O)n1CCCN1CCOCC1)Nc1cccc(S(=O)(=O)N2CCCCCC2)c1,,"inconclusive: 32.6 µM [falling, partial curve, poor fit]"
Nc1nc(N)c(N=Nc2ccc(S(N)(=O)=O)cc2)c(=O)[nH]1,,"inconclusive: 20.6 µM [falling, single point]"
COc1ccc(CN2C(=O)CS/C2=N/N=C/c2ccccc2)cc1,inactive: -0.201%,
CN1CCN(c2ccc(S(=O)(=O)N3CCOCC3)cc2NC(=O)COc2ccc(F)cc2Cl)CC1,,"inconclusive: 1.46 µM [falling, partial curve]"
CC(=O)c1cccc(NC(=O)COC(=O)c2ccccn2)c1,,"inconclusive: 32.6 µM [falling, partial curve, poor fit]"
CN(C)c1nc(N)c([N+](=O)[O-])c(N2CCCCCC2)n1,,"inconclusive: 32.6 µM [falling, partial curve, poor fit]"
COc1cccc(N=c2oc3ccc(OC)cc3cc2-c2nc3ccccc3[nH]2)c1,,active: 13 µM
COc1ccc(/C=C2\C(=O)NC(=S)N2C(=O)c2ccc(C)cc2)cc1,,"inconclusive: 23.1 µM [falling, single point]"

# Structural class, the entries above containing a CF3 group (2)
Structure (SMILES),"activity change, negative = cytotoxicity",Potency
COc1ccc(C2C=C3CNS(=O)(=O)C3CC2OC(=O)c2ccc(C(F)(F)F)cc2)cc1 (stereo not given),,"inconclusive: 29.1 µM [falling, single point]"
CCc1cccc(CC)c1NC(=O)COn1nnc2ccc(C(F)(F)F)cc21,,"inconclusive: 23.1 µM [activator, partial curve, poor fit]"
